Test results as given in article PMC5318303.
These are yes or no findings as the source states them, for the method shown. In cells and extracts the contact can be indirect. A result given as binding can be weak or reduced; the word gives no strength.

By UniProt entry, the sequences of proteins in these tests, tags left out. Where a name states a change or a piece, a line headed by the entry shows the natural chain unless it says otherwise.
UniProt Q10NC1: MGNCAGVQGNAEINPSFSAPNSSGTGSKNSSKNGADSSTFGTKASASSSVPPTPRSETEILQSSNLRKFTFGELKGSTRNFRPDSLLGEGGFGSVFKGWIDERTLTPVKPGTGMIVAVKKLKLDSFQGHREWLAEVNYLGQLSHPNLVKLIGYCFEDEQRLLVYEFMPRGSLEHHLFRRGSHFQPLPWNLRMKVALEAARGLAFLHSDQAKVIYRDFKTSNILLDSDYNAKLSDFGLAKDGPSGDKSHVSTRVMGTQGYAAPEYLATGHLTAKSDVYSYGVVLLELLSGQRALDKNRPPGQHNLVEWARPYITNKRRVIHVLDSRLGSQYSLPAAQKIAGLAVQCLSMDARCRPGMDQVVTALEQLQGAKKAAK

Columns and labels:
OsRLCK107-YN (rice) = OsRLCK107-YN (rice) (UniProt Q10NC1); experiment: split reporter; BiFC: OsRLCKs-YN and OsCERK1-YC co-expressed in rice protoplasts; reconstituted YFP fluorescence seen by confocal microscope
[1] = molecular target: OsRLCK107 with a C-terminal 3 × FLAG epitope tag (rice); experiment: co-IP; protoplasts expressing OsRLCK107-3xFLAG treated with 150 μg/mL chitin, PGN or sterile water (mock) for 10 min; immunoprecipitation with anti-FLAG GEL (Sigma); OsCERK1 detected by OsCERK1 antibody; WT protoplasts as negative control

binding (OsRLCK107-YN (rice)) | binding [1] | Binder
binds | – | OsCERK1-YC (receptor, UniProt A0A0P0XII1 19-624) AGTVTEAAGDGCSAGCDLALASFYVTPNQNVTNMADLFGIGAANYRSLAPYNPNIPNLDFINVGGRVNVYFTCGCRSLPGSPGATYLAGAFPFQMSRGQIYTSVAANYNNLTTAEWLQATNSYPANNIPDTAVINATVNCSCGDASISPDYGLFLTYPLRAEDTLASVAATYGLSSQLDVVRRYNPGMESATGSGIVYIPVKDPNGSYLPLKSPGKGASAGAIAGGVVAGVVVLAAIFLYIIFYRRRKAKQATLLQSSEDSTQLGTISMDKVTPSTIVGPSPVAGITVDKSVEFSYEELSNATQGFSIGNKIGQGGFGAVYYAELRGEKAAIKKMDMQATHEFLAELKVLTHVHHLNLVRLIGYCIESSLFLVYEFIENGNLSQHLRGMGYEPLSWAARIQIALDSARGLEYIHEHTVPVYIHRDIKSANILIDKNYRAKVADFGLTKLTEVGGTSMPTGTRVVGTFGYMPPEYARYGDVSPKVDVYAFGVVLYELISAKEAIVRSTESSSDSKGLVYLFEEALNSPDPKEGLRTLIDPKLGEDYPIDSILKLTQLAKVCTQEDPKLRPSMRSVVVALMTLSSTSEFWDMNNLYENQGLVNLMSGR
– | binds | OsCERK1 (receptor, UniProt A0A0P0XII1 19-624) AGTVTEAAGDGCSAGCDLALASFYVTPNQNVTNMADLFGIGAANYRSLAPYNPNIPNLDFINVGGRVNVYFTCGCRSLPGSPGATYLAGAFPFQMSRGQIYTSVAANYNNLTTAEWLQATNSYPANNIPDTAVINATVNCSCGDASISPDYGLFLTYPLRAEDTLASVAATYGLSSQLDVVRRYNPGMESATGSGIVYIPVKDPNGSYLPLKSPGKGASAGAIAGGVVAGVVVLAAIFLYIIFYRRRKAKQATLLQSSEDSTQLGTISMDKVTPSTIVGPSPVAGITVDKSVEFSYEELSNATQGFSIGNKIGQGGFGAVYYAELRGEKAAIKKMDMQATHEFLAELKVLTHVHHLNLVRLIGYCIESSLFLVYEFIENGNLSQHLRGMGYEPLSWAARIQIALDSARGLEYIHEHTVPVYIHRDIKSANILIDKNYRAKVADFGLTKLTEVGGTSMPTGTRVVGTFGYMPPEYARYGDVSPKVDVYAFGVVLYELISAKEAIVRSTESSSDSKGLVYLFEEALNSPDPKEGLRTLIDPKLGEDYPIDSILKLTQLAKVCTQEDPKLRPSMRSVVVALMTLSSTSEFWDMNNLYENQGLVNLMSGR
